Measurements as given in PubChem BioAssay AID1347076 (National Center for Advancing Translational Sciences (NCATS), 2019).
The whole screen tested about 400,000 compounds, of which about 13,000 (3.2%) were called active. This list was built around the results that the source calls inconclusive (neither active nor inactive); the mix of calls is not that of the screen. Calls follow the shape of the dose curve; as a rule, active = well fitted cell-killing curve with a large enough effect; inconclusive = small, poorly fitted or top-dose-only effect, or effect the other way; inactive = flat fitted curve, though single readings scatter. A potency beside an inconclusive call is a rough fit, not a confirmed value.

Assay: qHTS assay for MDR1-selective chemotherapeutics: Primary screen using the drug-selected MDR subline cells KB-V1; also: nearly all actives have a fitted effect of over 60% in size
Settings: KB-V1 MDR cells viability, CellTiter-Glo, 72 h; activity change, negative = cytotoxicity: at 46.1 µM (top of the series)
Procedure, shortened: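 Potencies derive from concentration-effect curves fitted to normalized luminescence (CellTiter-Glo) of KB-V1 cells treated for 72 h at 37 degrees C in phenol-red-free DMEM containing 10% FBS.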
% is scaled to controls: 0 for no effect and ±100 for the full control effect; potency is read from the fitted curve at half-maximal effect.

SMILES	Potency	activity change, negative = cytotoxicity
Cc1ccc(C(=O)c2c[nH]c(C(=O)NCCCN3CCOCC3)c2)cc1	inconclusive: 13 µM [cytotoxic, partial curve, poor fit]	–
COCCN(CCOc1cc(C)cc(C)c1)Cc1ccc(Cl)cc1	inconclusive: 16.4 µM [cytotoxic, partial curve]	–
COc1cc(C(=O)COC(=O)c2ccco2)cc(OC)c1OC	inconclusive: 16.4 µM [rising, partial curve]	–
O=c1c2ccccc2sn1-c1ccccc1F	inconclusive: 20.6 µM [cytotoxic, single point]	–
CCOc1cc(N2CCOCC2)c(OCC)cc1NC(=O)CC12CC3CC(CC(C3)C1)C2	inactive	–
COc1cccc(C(=O)Nc2ccccc2NC(=O)c2cccc(OC)c2)c1	inconclusive: 6.51 µM [cytotoxic, partial curve]	–
NC(Cc1ccccc1)c1csc(NC(=O)Nc2ccccc2Oc2ccccc2)n1 (centres undefined)	inconclusive: 29.1 µM [cytotoxic, single point]	–
COc1ccc(OC)c(-c2nc3c(C#N)c[nH]n3c2NC2CCCCC2)c1	inactive	–
COc1ccc(/C=N/c2c(-c3ccco3)nc3ccccn23)cc1OC	inconclusive: 14.6 µM [cytotoxic, partial curve, poor fit]	–
Cc1ccc(NNC2CC(=O)N(c3cccc(Cl)c3)C2=O)cc1 (centres undefined)	inconclusive: 29.1 µM [rising, single point]	–
Cc1noc(C)c1C(=O)Nc1ccc2c(c1)CCC2	inconclusive: 18.4 µM [cytotoxic, single point]	–
Cc1cc(C(C)(C)C)oc1C(=O)N(CC(=O)NC1CCCC1)Cc1ccc(Cl)cc1	inconclusive: 9.2 µM [cytotoxic, partial curve, poor fit]	–
CCCCCCSc1cccc(-c2nc3ccc(Cl)cn3c2NCc2ccccc2)c1	inconclusive: 14.6 µM [cytotoxic, partial curve]	–
CCOc1cc(C)c(-c2onc(C(F)(F)F)c2-c2csc(C)n2)c(O)c1	active: 13 µM	–
CC1C=CCC2C(=O)N(c3cccc(C(=O)Nc4ccc(Br)cc4)c3)C(=O)C12 (centres undefined)	–	inconclusive: -36.4%
S=C(NCc1cccs1)Nc1ccccc1	inconclusive: 25.9 µM [cytotoxic, single point]	–
O=C(N/N=C/c1cccc(C(F)(F)F)c1)c1cc2c(s1)-c1ccccc1CC2	inconclusive: 29.1 µM [cytotoxic, single point]	–
Cc1ccc(NC(=O)CN2C(=O)CCc3cc(S(=O)(=O)N4CCOCC4)ccc32)cc1N(C)C	inconclusive: 18.4 µM [rising, partial curve, poor fit]	–
CCOc1ccc(-c2nc(C#N)c(NCc3ccco3)o2)cc1	inactive	–
O=C(c1cccs1)N(Cc1cccnc1)c1nc2c(Cl)cccc2s1	–	inconclusive: -41.6%
COc1ccccc1/C=C/C(=O)OCC(=O)NC1CCCCCC1	inconclusive: 11.6 µM [rising, partial curve, poor fit]	–
O=C(NN1CCN(Cc2ccccc2)CC1)c1ccc(Cl)cc1	inconclusive: 29.1 µM [cytotoxic, single point]	–

SMILES	Potency	activity change, negative = cytotoxicity
O=C(CCc1nc2cccnc2n1Cc1cccs1)Nc1cccc(C(F)(F)F)c1	inactive	–
Cc1cc(OCCCC(=O)Nc2nnc(C3CC3)s2)ccc1Cl	inconclusive: 29.1 µM [cytotoxic, single point]	–
O=C(Cc1ccc(S(=O)(=O)N2CCCCC2)s1)Nc1ccc(F)c(F)c1	inconclusive: 29.1 µM [cytotoxic, single point]	–
CCOC(=O)c1c(CN2CCNCC2)nc2ccc(Cl)cc2c1-c1ccccc1	active: 23.1 µM	–
Oc1ccc(-c2nc3ccccn3c2NCc2ccc3c(c2)OCO3)cc1	inconclusive: 16.4 µM [cytotoxic, partial curve]	–
Cn1c(=O)c2cc(NC(=O)CCc3ccccc3)ccc2n1Cc1cccc(C(F)(F)F)c1	inactive	–
COc1ccc(NC(C)=O)cc1NC(C)c1nc2sc(C)c(C)c2c(=O)[nH]1 (centres undefined)	inactive	–
O=C1CC(c2ccccc2F)c2c(c3ccccc3[nH]c2=O)O1 (centres undefined)	inconclusive: 29.1 µM [rising, single point]	–
O=C(Nc1cc(C(F)(F)F)ccc1N1CCCC1)C1CCCO1 (centres undefined)	inactive	–
COCC(=O)N(C)C[C@H]1Oc2cc(C#Cc3cccnc3)ccc2S(=O)(=O)N([C@H](C)CO)C[C@H]1C	inactive	–
COc1cccc(C2c3cc4c(cc3OC(C)(N3CCCC3)C2C)OCO4)c1O (centres undefined)	active: 16.4 µM	–
O=C(NC1CCCC1)c1ccc2c(c1)N(Cc1ccc(C(F)(F)F)cc1)C(=O)c1ccccc1S2	inconclusive: 1.84 µM [cytotoxic, single point]	–
COCCN=c1scc(-c2ccco2)n1/N=C/c1ccc(O)c(O)c1O	inconclusive: 29.1 µM [cytotoxic, single point]	–
COc1ccc(OCC(=O)NNC(=O)c2ccc3c(=O)n4c(nc3c2)CCC4)cc1	inconclusive: 8.2 µM [rising, partial curve, poor fit]	–
CC1(CCc2ccccc2)NC(=O)N(CC(=O)Nc2ccc3c(c2)OCCO3)C1=O (centres undefined)	inconclusive: 29.1 µM [rising, single point]	–
CCC(C)(c1ccc(C(=O)OC)s1)c1ccc(C(=O)OC)s1	inconclusive: 29.1 µM [cytotoxic, single point]	–
CC(=O)Nc1ccc(NC(=O)CSc2ncc(C(=O)Nc3ccc(F)cc3)c(=O)n2C)cc1	inactive	–
Cc1cc(C)c(C(=O)CC(=O)c2cccnc2)c(C)c1	inconclusive: 23.1 µM [cytotoxic, partial curve, poor fit]	–
Cc1c(C(=O)NC(C)c2ccccn2)oc2c(Cl)cccc12 (centres undefined)	inconclusive: 11.6 µM [cytotoxic, partial curve, poor fit]	–
NC(=O)c1ccc(-c2nnn(CC(=O)Nc3cccc(S(=O)(=O)N4CCCC4)c3)n2)cc1	–	inconclusive: -2.34%
CCN(CC)c1ccc(S(=O)(=O)N2CCOCC2)cc1NC(=O)CSc1nnc(N)s1	inactive	–
Cc1ccccc1-c1cc2nc(Oc3cccc4ccccc34)n(C)c(=O)c2s1	inactive	–

Copied from the results shown, 3 compounds:
SMILES	Potency	activity change, negative = cytotoxicity
Oc1ccc(-c2nc3ccccn3c2NCc2ccc3c(c2)OCO3)cc1	inconclusive: 16.4 µM [cytotoxic, partial curve]	–
Cn1c(=O)c2cc(NC(=O)CCc3ccccc3)ccc2n1Cc1cccc(C(F)(F)F)c1	inactive	–
COc1ccc(NC(C)=O)cc1NC(C)c1nc2sc(C)c(C)c2c(=O)[nH]1 (centres undefined)	inactive	–
